± gives the standard deviation of the averaged measurements. The effect of the compound repeats well; differences between the knockouts mostly do not.
Tested on: MDA-MB-231
Assay: relative cell number vs DMSO control (72 h) (% of DMSO); higher = less growth inhibition (more cells)
Method: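 QMAP-Seq: a pool of 5 breast cancer cell lines (ZR-75-1, SKBR3, HCC-38, MDA-MB-231, BT-20), each carrying 12 doxycycline-inducible Cas9 sgRNA perturbations (11 knockouts plus non-targeting sgNT), was treated with compounds for 72 h at four 10-fold doses (10 nM-10 uM or 1 nM-1 uM range). Barcodes were amplified and sequenced, and cell number was interpolated from 293T spike-in standard curves. The result is expressed as % of the median of DMSO wells. Two biological replicates.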

COc1cc2nc(N3CCCN(C)CC3)nc(NC3CCN(Cc4ccccc4)CC3)c2cc1OC
Details | relative cell number
sgRNA knockout: sgATF3, 10 nM | 108 ± 16
sgRNA knockout: sgATF3, 100 nM | 93.6 ± 5.2
sgRNA knockout: sgATF3, 1000 nM | 100 ± 3.6
sgRNA knockout: sgATF3, 10000 nM | 4.93 ± 2.6
sgRNA knockout: sgATF4, 10 nM | 72.5 ± 12
sgRNA knockout: sgATF4, 100 nM | 119 ± 5
sgRNA knockout: sgATF4, 1000 nM | 94.4 ± 44
sgRNA knockout: sgATF4, 10000 nM | 6.06 ± 5.3
sgRNA knockout: sgATF6, 10 nM | 89 ± 1.6
sgRNA knockout: sgATF6, 100 nM | 106 ± 14
sgRNA knockout: sgATF6, 1000 nM | 87.5 ± 4.2
sgRNA knockout: sgATF6, 10000 nM | 6.03 ± 5.5
sgRNA knockout: sgATG7, 10 nM | 84.1 ± 9.8
sgRNA knockout: sgATG7, 100 nM | 111 ± 19
sgRNA knockout: sgATG7, 1000 nM | 67.92 ± 0.66
sgRNA knockout: sgATG7, 10000 nM | 5.51 ± 3.5
sgRNA knockout: sgERN1, 10 nM | 110 ± 12
sgRNA knockout: sgERN1, 100 nM | 104 ± 22
sgRNA knockout: sgERN1, 1000 nM | 90.08 ± 0.35
sgRNA knockout: sgERN1, 10000 nM | 4.84 ± 0.7
sgRNA knockout: sgHSF1, 10 nM | 97.8 ± 3
sgRNA knockout: sgHSF1, 100 nM | 90.5 ± 4.3
sgRNA knockout: sgHSF1, 1000 nM | 98.2 ± 16
sgRNA knockout: sgHSF1, 10000 nM | 3.61 ± 0.14
sgRNA knockout: sgHSF2, 10 nM | 83.9 ± 23
sgRNA knockout: sgHSF2, 100 nM | 110 ± 3.8
sgRNA knockout: sgHSF2, 1000 nM | 74.8 ± 7.2
sgRNA knockout: sgHSF2, 10000 nM | 6.44 ± 7.2
sgRNA knockout: sgKEAP1, 10 nM | 105.6 ± 0.71
sgRNA knockout: sgKEAP1, 100 nM | 82.6 ± 33
sgRNA knockout: sgKEAP1, 1000 nM | 106 ± 4
sgRNA knockout: sgKEAP1, 10000 nM | 3.37 ± 1.8
sgRNA knockout: sgNFE2L2, 10 nM | 93.29 ± 0.66
sgRNA knockout: sgNFE2L2, 100 nM | 105 ± 5.2
sgRNA knockout: sgNFE2L2, 1000 nM | 72.8 ± 7.6
sgRNA knockout: sgNFE2L2, 10000 nM | 6.9 ± 5.7
sgRNA knockout: sgSLC35F2, 10 nM | 85.86 ± 0.78
sgRNA knockout: sgSLC35F2, 100 nM | 99.2 ± 2.8
sgRNA knockout: sgSLC35F2, 1000 nM | 87 ± 23
sgRNA knockout: sgSLC35F2, 10000 nM | 5.72 ± 3.9
sgRNA knockout: sgXBP1, 10 nM | 92.8 ± 20
sgRNA knockout: sgXBP1, 100 nM | 93.3 ± 12
sgRNA knockout: sgXBP1, 1000 nM | 73.6 ± 9.2
sgRNA knockout: sgXBP1, 10000 nM | 5.05 ± 1.5
